PubChem BioAssay AID652243, Drosophila RNAi Screening Center – 2013
Aim: 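Knock-downs that decrease or increase androgen receptor reporter signal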 (primary screen). Cells: Drosophila S2R+ cells. Reagent: long dsRNA against Drosophila genes. Timing: 72 h (48 h, then 24 h hormone). Challenge: synthetic androgen R1881 at 10 nM for 24 h. Read-out: 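Per-well raw luminescence of the androgen-driven firefly reporter and of the Renilla control, two replicates each, without normalisation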. Reading the numbers: firefly reporter light: higher = more light from androgen-responsive reporter; Renilla control light: higher = more constitutive control signal (cell number, transfection). Rule for the call: 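Across duplicate plates, a knock-down whose log firefly/Renilla ratio shifted a set fold down or up from the GFP/LacZ control mean was a hit; the downward cut appears as both 1.5 and 3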. Meaning of the calls: active = hit: reporter lowered or raised; inactive = no hit.
In all, the deposit lists about 24,000 reagents; shown is an unselected part of those with a known target gene and a result. Of all reagents, 246 (1%) got an active call. 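Plates not normalised; calls are printed but the firefly/Renilla ratio behind them is not deposited; fold cut for lowering reported inconsistently.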 Raw values vary from plate to plate and are shown uncorrected. The numbers tell different reagents against one gene apart. Not given: the amount of reagent.

CG15482 → firefly reporter light, replicate 1 = 1.98e5; firefly reporter light, replicate 2 = 2.49e5; Renilla control light, replicate 1 = 1.34e6; Renilla control light, replicate 2 = 1.40e6; call = inactive
CG7341 → firefly reporter light, replicate 1 = 57594; firefly reporter light, replicate 2 = 61985; Renilla control light, replicate 1 = 5.25e5; Renilla control light, replicate 2 = 3.59e5; call = inactive
CCKLR-17D3 #1 → firefly reporter light, replicate 1 = 1.16e5; firefly reporter light, replicate 2 = 79776; Renilla control light, replicate 1 = 1.41e5; Renilla control light, replicate 2 = 45339; call = inactive
CCKLR-17D3 #2 → firefly reporter light, replicate 1 = 3.01e5; firefly reporter light, replicate 2 = 1.60e5; Renilla control light, replicate 1 = 1.04e6; Renilla control light, replicate 2 = 3.57e5; call = inactive
CCKLR-17D3 #3 → firefly reporter light, replicate 1 = 6.82e5; firefly reporter light, replicate 2 = 8.19e5; Renilla control light, replicate 1 = 1.12e6; Renilla control light, replicate 2 = 1.19e6; call = inactive
Prps #1 → firefly reporter light, replicate 1 = 2.13e5; firefly reporter light, replicate 2 = 1.31e5; Renilla control light, replicate 1 = 3.60e5; Renilla control light, replicate 2 = 2.47e5; call = inactive
Prps #2 → firefly reporter light, replicate 1 = 2.04e5; firefly reporter light, replicate 2 = 2.11e5; Renilla control light, replicate 1 = 2.16e6; Renilla control light, replicate 2 = 1.87e6; call = inactive
Prps #3 → firefly reporter light, replicate 1 = 2.91e5; firefly reporter light, replicate 2 = 1.94e5; Renilla control light, replicate 1 = 3.67e6; Renilla control light, replicate 2 = 2.55e6; call = inactive
Hsl → firefly reporter light, replicate 1 = 1.04e6; firefly reporter light, replicate 2 = 4.17e5; Renilla control light, replicate 1 = 1.94e6; Renilla control light, replicate 2 = 8.57e5; call = inactive
Lac → firefly reporter light, replicate 1 = 1.27e6; firefly reporter light, replicate 2 = 7.45e5; Renilla control light, replicate 1 = 1.40e6; Renilla control light, replicate 2 = 9.95e5; call = inactive
Alp1 #1 → firefly reporter light, replicate 1 = 50815; firefly reporter light, replicate 2 = 40565; Renilla control light, replicate 1 = 4.29e5; Renilla control light, replicate 2 = 3.12e5; call = active
Alp1 #2 → call = inactive

Records above marked active (1):
Alp1 #1 → firefly reporter light, replicate 1 = 50815; firefly reporter light, replicate 2 = 40565; Renilla control light, replicate 1 = 4.29e5; Renilla control light, replicate 2 = 3.12e5; call = active
